For at least one compound, name, drawing or mass did not settle the structure.
Biological target: T1, 9° N™ (exo-)/A485L DNA polymerase (Thermococcus sp., UniProt Q56366, A485L/D141A/E143A)
T1 construct: made in house
Type: biochemical, Thermococcus sp. 9° N-7
Details: thermal cycled, FIG. 9
Method: The 2X cocktail was split in half and 9° N™ (exo-)/A485L DNA polymerase or Thermo Sequenase™ was added to a final concentration of 0.04 U/μl. […] Reactions were thermal cycled as follows: • 94° C. 5 minutes • 25 cycles at: • 94° C. 30 seconds • 55° C. 30 seconds • 72° C. 30 seconds • 72° C. 7 minutes

Chains of the proteins cited; added tags and fusions are not shown.
UniProt Q56366, whole entry D141A/E143A/A485L: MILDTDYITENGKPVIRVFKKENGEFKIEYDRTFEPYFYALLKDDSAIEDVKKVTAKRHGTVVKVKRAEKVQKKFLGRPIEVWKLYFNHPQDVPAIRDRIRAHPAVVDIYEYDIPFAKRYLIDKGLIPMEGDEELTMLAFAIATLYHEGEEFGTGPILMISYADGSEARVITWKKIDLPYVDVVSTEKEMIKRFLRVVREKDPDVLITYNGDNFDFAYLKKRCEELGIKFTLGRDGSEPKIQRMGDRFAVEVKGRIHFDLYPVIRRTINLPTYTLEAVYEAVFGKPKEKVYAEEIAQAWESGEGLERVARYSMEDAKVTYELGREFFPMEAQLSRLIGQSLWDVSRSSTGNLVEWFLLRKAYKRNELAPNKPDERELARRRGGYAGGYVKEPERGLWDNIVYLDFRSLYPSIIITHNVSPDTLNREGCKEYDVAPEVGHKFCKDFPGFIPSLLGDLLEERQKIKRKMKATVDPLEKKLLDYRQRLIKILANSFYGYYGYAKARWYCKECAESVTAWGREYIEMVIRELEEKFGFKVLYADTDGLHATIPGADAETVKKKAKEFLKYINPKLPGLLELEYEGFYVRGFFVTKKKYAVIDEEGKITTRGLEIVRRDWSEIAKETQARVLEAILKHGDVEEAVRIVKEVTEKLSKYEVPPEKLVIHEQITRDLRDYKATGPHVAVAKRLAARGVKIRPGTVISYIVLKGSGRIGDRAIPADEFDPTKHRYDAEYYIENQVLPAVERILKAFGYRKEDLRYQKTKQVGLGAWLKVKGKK

Question: For `Nc1nc2c(ncn2[C@H]2CC[C@@H](COP(=O)(O)OP(=O)(O)OP(=O)(O)O)O2)c(=O)[nH]1` [ddGTP], which “Ratio of terminator:dGTP giving similar banding pattern” value is on record?
Answer: 3:1

— patent publication US20060199214A1, “Incorporation of modified nucleotides by archaeon DNA polymerases and related methods” (priority 1999, published 2006)
